Experimental data as given in PMC6517818, “The yeast mitochondrial pyruvate carrier is a hetero‐dimer in its functional state” (The EMBO Journal, 2019).
Results are given in words; binding and its absence hold for the method and conditions named. In cells and extracts the contact can be indirect. Some results given as binding are weak or reduced against the parent protein; the word gives no strength. Sequences can lack the tags named with a protein.

Biological target: T1, Mpc2 with a C-terminal Factor Xa cleavage site and octa-histidine tag (S. cerevisiae) (UniProt P38857)
T1 sequence: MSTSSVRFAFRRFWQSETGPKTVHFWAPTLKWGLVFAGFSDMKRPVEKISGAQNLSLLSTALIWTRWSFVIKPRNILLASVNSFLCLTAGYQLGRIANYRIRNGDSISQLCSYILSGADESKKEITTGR
Experiment: pull-down; nickel-affinity co-purification: untagged Mpc1 co-expressed with His8-tagged partner in yeast mitochondria; solubilised in 1% LMNG, 20 mM Tris-HCl pH 7.4, 150 mM NaCl, 4 °C; bound to nickel Sepharose, washed with 40 mM imidazole, 0.1% LMNG, 0.1 mg/ml TOCL; released by on-column Factor Xa cleavage; SDS-PAGE with Coomassie stain and peptide mass fingerprinting; Mpc1/Mpc3 also purified in Triton X-100, DMNG or DDM

- binding: binds
B1: Mpc1 (untagged), mitochondrial pyruvate carrier protein 1 from Saccharomyces cerevisiae (natural protein, S. cerevisiae, UniProt P53157 1-130, looked up)
chain: MSQPVQRAAARSFLQKYINKETLKYIFTTHFWGPVSNFGIPIAAIYDLKKDPTLISGPMTFALVTYSGVFMKYALSVSPKNYLLFGCHLINETAQLAQGYRFLKYTYFTTDEEKKALDKEWKEKEKTGKQ
notes: Mpc1, S. cerevisiae, UniProt P53157; codon-optimised synthetic gene; theoretical mass 15 kDa; also called unmodified Mpc1; source: S. cerevisiae mitochondria (SHY15 or W303-1B), co-expressed from pBEVY-GU with histidine-tagged Mpc3 or Mpc2; co-purified on nickel Sepharose in LMNG and tetraoleoyl cardiolipin
